# Test results from the supplement of paper PMC8256030.
# Where “and” joins values, the source holds several entries; their conditions need not be identical. Equal values may be shown once. Some of the results follow. This data set is noisy: repeats of one test often differ as much as different tests do.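 HEK293T cells were given each compound shortly before transfection with a reporter in which red mCherry is followed by the SARS-CoV-2 frameshift element and then GFP in the −1 frame, so GFP appears only after frameshifting.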
# Legend:
# [1] = tested on: SARS-CoV-2 -1 PRF reporter mCherry-FSE-GFP(-1); assay: mCherry (red) intensity as percent of control; higher = higher upstream reporter expression; details: 10 µM; 24 h; HEK293T
# [2] = tested on: SARS-CoV-2 -1 PRF reporter mCherry-FSE-GFP(-1); assay: percent effect, decrease of GFP/mCherry ratio (-1 PRF reporter) relative to controls; higher = stronger frameshift inhibition; details: 10 µM; 24 h; HEK293T
structure (smiles),measurement,setting,value
CC(C)[C@H]1CC[C@H](C(=O)N[C@H](Cc2ccccc2)C(=O)O)CC1 [Nateglinide],mCherry,[1],91.6%
same,percent effect,[2],6.42%
CN(C)c1cc(NC(=O)CNC(C)(C)C)c(O)c2c1C[C@H]1C[C@H]3[C@H](N(C)C)C(=O)C(C(N)=O)=C(O)[C@@]3(O)C(=O)C1=C2O [Tigecycline],mCherry,[1],100%
same,percent effect,[2],1.38%
CCCCCCCCCC(=O)N[C@H]1[C@H](Oc2c3cc4cc2Oc2ccc(cc2Cl)[C@@H](O[C@@H]2O[C@H](CO)[C@@H](O)[C@H](O)[C@H]2NC(C)=O)[C@@H]2NC(=O)[C@H](NC(=O)[C@@H]4NC(=O)[C@H]4NC(=O)[C@@H](Cc5ccc(c(Cl)c5)O3)NC(=O)[C@H](N)c3ccc(O)c(c3)Oc3cc(O)cc4c3)c3ccc(O)c(c3)-c3c(OC4O[C@H](CO)[C@@H](O)[C@H](O)[C@@H]4O)cc(O)cc3[C@@H](C(=O)O)NC2=O)O[C@H](CO)[C@@H](O)[C@@H]1O (some centres undefined),mCherry,[1],100%
same,percent effect,[2],-2.14%
CCN(CC)CCCCCCNc1cc(OC)cc2c(C)ccnc12 [sitamaquine],mCherry,[1],77%
same,percent effect,[2],-12.5%
CSCC1CN(/N=C/c2ccc([N+](=O)[O-])o2)C(=O)O1 (centres undefined) [nifuratel],mCherry,[1],108%
same,percent effect,[2],-1.21%
CC(=O)OCC(=O)[C@@]1(O)CC[C@H]2[C@@H]3CCC4=CC(=O)C=C[C@]4(C)[C@@]3(Cl)[C@@H](Cl)C[C@@]21C,mCherry,[1],98.3%
same,percent effect,[2],-0.568%
C=C(C)CNc1ccc(C(C)C(=O)O)cc1 (centres undefined) [alminoprofen],mCherry,[1],66.9%
same,percent effect,[2],-1.09%
CC1(C)OC(=O)NC1=O [dimethadione],mCherry,[1],105%
same,percent effect,[2],-8.31%
Cc1cc(-n2c(=O)[nH]c(=O)n(C)c2=O)ccc1Oc1ccc(S(=O)(=O)C(F)(F)F)cc1 [ponazuril],mCherry,[1],98.5%
same,percent effect,[2],3.41%
O=C(CCCN1CCC(O)(c2cccc(C(F)(F)F)c2)CC1)c1ccc(F)cc1 [trifluperidol],mCherry,[1],94.8%
same,percent effect,[2],0.543%
COCC(=O)O[C@]1(CCN(C)CCCc2nc3ccccc3[nH]2)CCc2cc(F)ccc2[C@@H]1C(C)C [mibefradil],mCherry,[1],126%
same,percent effect,[2],-0.39%
CCc1cccc2c3c([nH]c12)C(CC)(CC(=O)O)OCC3 (centres undefined) [etodolac],mCherry,[1],125%
same,percent effect,[2],-7%
Cc1onc(-c2c(F)cccc2Cl)c1C(=O)N[C@@H]1C(=O)N2[C@@H]1SC(C)(C)[C@@H]2C(=O)O [Floxacillin],mCherry,[1],108%
same,percent effect,[2],-3.53%
COc1cc(C(=O)NS(=O)(=O)c2ccccc2C)ccc1Cc1cn(C)c2ccc(NC(=O)OC3CCCC3)cc12 [Zafirlukast],mCherry,[1],77.4%
same,percent effect,[2],-1.85%
COc1cc2nc(N(C)CCCNC(=O)C3CCCO3)nc(N)c2cc1OC (centres undefined) [alfuzosin],mCherry,[1],97.8% and 87.3%
same,percent effect,[2],-3.77% and -3.37%
Cc1cccc(C)c1NC(=O)CC12CCCN1CCC2 [pilsicainide],mCherry,[1],104%
same,percent effect,[2],-2.23%
CCOC(=O)NNc1nncc2ccccc12,mCherry,[1],87.4%
same,percent effect,[2],-1.93%
CC1CC(OC(=O)c2ccccc2O)CC(C)(C)C1 (centres undefined) [homosalate],mCherry,[1],102%
same,percent effect,[2],-2.01%
CC(C)C[C@H](N)C(=O)O [leucine],mCherry,[1],127%
same,percent effect,[2],-4.1%
COC(=O)Nc1nc2cc([S+]([O-])c3ccccc3)ccc2[nH]1 (centres undefined),mCherry,[1],120%
same,percent effect,[2],1.04%
N=C(N)NCCC[C@@H](NC(=O)[C@@H]1CCCN1C(=O)[C@@H]1CSSCCC(=O)N[C@@H](Cc2ccc(O)cc2)C(=O)N[C@@H](Cc2ccccc2)C(=O)N[C@@H](CCC(N)=O)C(=O)N[C@@H](CC(N)=O)C(=O)N1)C(=O)NCC(N)=O,mCherry,[1],111%
same,percent effect,[2],-4.64%
Cc1ccc(S(=O)(=O)NC(=O)N[C@H]2[C@H]3CC[C@@](C)([C@H]2O)C3(C)C)cc1 [glibornuride],mCherry,[1],103%
same,percent effect,[2],1.41%
O=C(O)CN1C(=O)c2cccc3cccc(c23)C1=O [alrestatin],mCherry,[1],115%
same,percent effect,[2],-5.48%
COc1ccc2c3c1O[C@H]1C[C@@H](O)C=C[C@@]31CCN(C)C2 [galantamine],mCherry,[1],91.7% and 78.1%
same,percent effect,[2],2.56% and -4.99%
CN1CCC[C@H]1c1cccnc1 [Nicotine],mCherry,[1],98.4%
same,percent effect,[2],-10.5%
O=C(CCCN1CC=C(n2c(=O)[nH]c3ccccc32)CC1)c1ccc(F)cc1 [droperidol],mCherry,[1],138%
same,percent effect,[2],-4.49%
CC1=NN(c2ccccc2)C(=O)C1 [edaravone],mCherry,[1],97.6%
same,percent effect,[2],1.67%
CC(C)(C)NCC(O)c1cc(O)cc(O)c1 (centres undefined) [terbutaline],mCherry,[1],114%
same,percent effect,[2],-5.61%
COC(=O)C1=C(C#N)NC(C)=C(C(=O)OC(C)C)C1c1cccc([N+](=O)[O-])c1 (centres undefined) [nilvadipine],mCherry,[1],105%
same,percent effect,[2],-0.731%
CN1CCN(C2=Nc3cc(Cl)ccc3Nc3ccccc32)CC1 [Clozapine],mCherry,[1],70.9%
same,percent effect,[2],-2.21%
CC(C)(C)NC[C@H](O)COc1cccc2c1CCCC2=O [levobunolol],mCherry,[1],111% and 95.2%
same,percent effect,[2],-2.53% and -3.25%
CC(=O)NC1C(O)CC(O)(C(=O)O)OC1C(O)C(O)CO (centres undefined),mCherry,[1],123%
same,percent effect,[2],-1.45%
CN(C)c1ccc(O)c2c1C[C@H]1C[C@H]3[C@H](N(C)C)C(=O)C(C(N)=O)=C(O)[C@@]3(O)C(=O)C1=C2O,mCherry,[1],111%
same,percent effect,[2],1.86%
O=C(O)CCCc1ccccc1,mCherry,[1],104%
same,percent effect,[2],-7.26%
C[C@]12CC[C@@H]3c4ccc(O)cc4CC[C@H]3[C@@H]1CC[C@@H]2OC(=O)CCC1CCCC1,mCherry,[1],116%
same,percent effect,[2],-11%
COc1c(O[C@@H]2O[C@H](CO)[C@@H](O)[C@H](O)[C@H]2O)cc2c(c1OC)-c1ccc(SC)c(=O)cc1[C@@H](NC(C)=O)CC2 [thiocolchicoside],mCherry,[1],124%
same,percent effect,[2],-3.8%
CC(=O)Oc1cccc(C(=O)O)c1OC(C)=O [dipyrocetyl],mCherry,[1],121%
same,percent effect,[2],4.25%
Cc1ncc(CO)c(C=O)c1O [Pyridoxal],mCherry,[1],90.3%
same,percent effect,[2],-4.98%
Oc1ncnc2[nH]ncc12 [Allopurinol],mCherry,[1],56.8%
same,percent effect,[2],-8.2%
OC[C@H]1O[C@@H](n2cnc3c2N=CNC[C@H]3O)C[C@@H]1O [Pentostatin],mCherry,[1],91.1%
same,percent effect,[2],-5.12%
O=C(N/N=C/c1ccc([N+](=O)[O-])o1)c1ccc(O)cc1 [nifuroxazide],mCherry,[1],50.9%
same,percent effect,[2],-7.26%
CNS(=O)(=O)Cc1ccc2[nH]cc(CCCN3CCN(c4ncncc4OC)CC3)c2c1 [avitriptan],mCherry,[1],66.9%
same,percent effect,[2],-11%
CC(=O)O[C@]1(C(C)=O)CC[C@H]2[C@@H]3C[C@H](C)C4=CC(=O)CC[C@]4(C)[C@H]3CC[C@@]21C,mCherry,[1],117%
same,percent effect,[2],-10.1%
c1ccc(CN(CC2=NCCN2)c2ccccc2)cc1 [antazoline],mCherry,[1],91.7%
same,percent effect,[2],-3.83%
COC(=O)C1=C(C)NC(C)=C(C(=O)OCCCN2CCC(c3ccccc3)(c3ccccc3)CC2)C1c1cccc([N+](=O)[O-])c1 (centres undefined) [dexniguldipine  iguldipine],mCherry,[1],25.8%
same,percent effect,[2],-13.4%
C#CCN(C)CCCOc1ccc(Cl)cc1Cl,mCherry,[1],88.8%
same,percent effect,[2],0.703%
COc1cc(CNC(=O)CCCC/C=C\C(C)C)ccc1O [zucapsaicin],mCherry,[1],83.6%
same,percent effect,[2],-5.52%
Cc1ccc(C2(O)CCN(CCCC(=O)c3ccc(F)cc3)CC2)cc1 [moperone],mCherry,[1],73.1%
same,percent effect,[2],1.75%
CC1(c2ccccc2)OC(C(=O)O)=CC1=O (centres undefined) [acifran],mCherry,[1],87.6%
same,percent effect,[2],-11.9%
CO[C@H]1C[C@H](O[C@H]2[C@H](C)[C@@H](O[C@@H]3O[C@H](C)C[C@H](N(C)C)[C@H]3O)[C@@H](C)C[C@@]3(CO3)C(=O)[C@H](C)[C@@H](O)[C@@H](C)[C@@H](C)OC(=O)[C@@H]2C)O[C@@H](C)[C@@H]1O,mCherry,[1],97.2%
same,percent effect,[2],-2.14%
CO/N=C(\C(=O)N[C@@H]1C(=O)N2C(C(=O)O)=C(CSc3nc(=O)c(O)nn3C)CS[C@H]12)c1csc(N)n1 [Rocephin],mCherry,[1],100%
same,percent effect,[2],-1.75%
CCc1oc2ccccc2c1C(=O)c1ccc(O)cc1 [benzarone],mCherry,[1],88.7%
same,percent effect,[2],-5.32%
Fc1ccc(C(c2ccc(F)cc2)N2CCN(C/C=C/c3ccccc3)CC2)cc1 [flunarizine],mCherry,[1],93.3% and 69.4%
same,percent effect,[2],-1.82% and -7.29%
O=C(CCBr)N1CCN(C(=O)CCBr)CC1 [pipobroman],mCherry,[1],91.5%
same,percent effect,[2],0.506%
CC(CCc1ccc(O)cc1)NCCc1ccc(O)c(O)c1 (centres undefined),mCherry,[1],89.6% and 84.3%
same,percent effect,[2],-4.38% and -0.617%
CC(=O)Oc1ccccc1C(=O)Nc1ncc([N+](=O)[O-])s1 [nitazoxanide],mCherry,[1],121%
same,percent effect,[2],-4.38%
COc1ccc(Cl)cc1C(=O)NCCc1ccc(S(=O)(=O)NC(=O)NC2CCCCC2)cc1 [glibenclamide],mCherry,[1],106% and 95.4%
same,percent effect,[2],4.09% and 1.06%
CS(=O)(=O)CCNCc1ccc(-c2ccc3ncnc(Nc4ccc(OCc5cccc(F)c5)c(Cl)c4)c3c2)o1 [lapatinib],mCherry,[1],67.8%
same,percent effect,[2],-4.96%
C[N+]1(C)CCC(OC(=O)C(O)(c2ccccc2)C2CCCC2)C1 (centres undefined) [glycopyrronium bromide],mCherry,[1],92.9%
same,percent effect,[2],-2.72%
CCCN(CC)C(CC)C(=O)Nc1c(C)cccc1C (centres undefined) [etidocaine],mCherry,[1],73.2%
same,percent effect,[2],-4%
O=C(O)C1=C(CSc2nnnn2CS(=O)(=O)O)CS[C@@H]2[C@H](NC(=O)[C@H](O)c3ccccc3)C(=O)N12,mCherry,[1],91.5%
same,percent effect,[2],-4.32%
CN[C@@H]1CCc2[nH]c3ccc(C(N)=O)cc3c2C1 [frovatriptan],mCherry,[1],99.1%
same,percent effect,[2],-1.45%
CN(C)[C@@H]1C(=O)C(C(N)=O)=C(O)[C@@]2(O)C(=O)C3=C(O)c4c(O)ccc(Cl)c4[C@@H](O)[C@H]3C[C@@H]12,mCherry,[1],107%
same,percent effect,[2],-2.3%
CCC[C@@H]1C[C@@H](C(=O)N[C@@H]([C@H]2O[C@H](SC)[C@H](O)[C@@H](O)[C@H]2O)[C@H](C)Cl)N(C)C1 [Cleocin],mCherry,[1],134% and 128%
same,percent effect,[2],-1.77% and -0.819%
COc1ccc2cc1Oc1ccc(cc1)C[C@H]1c3c(cc4c(c3Oc3cc5c(cc3OC)CCN(C)[C@@H]5C2)OCO4)CCN1C,mCherry,[1],36.2%
same,percent effect,[2],-1.25%
CCC(C)(C)NCC(O)COc1ccccc1C#N (centres undefined) [penirolol],mCherry,[1],105%
same,percent effect,[2],-7.52%
Cc1cc(C)cc(NC(=O)Cc2ccc(OC(C)(C)C(=O)O)cc2)c1 [efaproxiral],mCherry,[1],99.6%
same,percent effect,[2],-1.36%

# Not a retest: entries from further up.
structure (smiles),measurement,setting,value
O=C(O)CN1C(=O)c2cccc3cccc(c23)C1=O [alrestatin],percent effect,[2],-5.48%
COc1ccc2c3c1O[C@H]1C[C@@H](O)C=C[C@@]31CCN(C)C2 [galantamine],mCherry,[1],91.7% and 78.1%
same,percent effect,[2],2.56% and -4.99%
CN1CCC[C@H]1c1cccnc1 [Nicotine],mCherry,[1],98.4%
same,percent effect,[2],-10.5%
O=C(CCCN1CC=C(n2c(=O)[nH]c3ccccc32)CC1)c1ccc(F)cc1 [droperidol],mCherry,[1],138%
same,percent effect,[2],-4.49%
